From patent US20220296555A1, “ACYLATED ACTIVE AGENTS AND METHODS OF THEIR USE FOR THE TREATMENT OF METABOLIC DISORDERS AND NONALCOHOLIC FATTY LIVER DISEASE” (Flagship Pioneering Innovations V, Inc., priority 2019, published 2022)
“Also recorded” adds a separate entry of the source. At least one structure is not confirmed: it was looked up by name or label, or the drawing left a doubt.

Key:
C57BL/6 mice [1] = assay: Insulin tolerance test in mice fed a high-fat diet; assay type: in vivo, mouse; conditions: vs HFD only cohort, 0.5 Units/kg insulin intraperitoneally, 72 or 73 days into the study
C57BL/6 mice [2] = assay: In vivo evaluation in mice fed a high-fat diet (84-day study); design: species or system mouse
Description: Animals were allowed free access to food and drinking water for the entire study. Animals were weighed on a regular basis, and food and drinking water consumption monitored. Plasma and stool samples were collected at the beginning of the study and 42 days into the study. Additional blood was drawn from fasted mice 58 days into the study. Insulin tolerance tests were performed 72 or 73 days into the study. Following an approximate 4 h fast, 0.5 Units/kg insulin was administered intraperitoneally. Blood was collected pre-insulin challenge (t=0) and at t=15, 30, 60, 90, and 120 min following insulin challenge. Oral glucose tolerance tests were performed 79 or 80 days into the study. Following an approximate 4 h fast, 2 g/kg glucose was administered by oral gavage. Blood was collected pre-insulin challenge (t=0) and at t=15, 30, 60, 90, and 120 min following glucose challenge. At the end of the study, body weight, food consumption, blood glucose, serum ALT levels, serum AST levels, serum cholesterol (total cholesterol. HDL, and LDL levels), serum triglycerides levels, liver triglyceride levels, liver cholesterol levels, liver weight, subcutaneous fat pad weight, and epididymal fat pad weight were measured in all mice.

C57BL/6 mice [3] = assay: Oral glucose tolerance test in mice fed a high-fat diet; assay type: in vivo, mouse; conditions: vs HFD only cohort, 2 g/kg glucose by oral gavage, 79 or 80 days into the study
[4] = end of the study, relative to HFD cohort
[5] = mice fed high-fat diet + test article

## CC(=O)Oc1ccc(/C=C/C(=O)O)cc1OC(C)=O [compound 3, diacetyl caffeic acid]
C57BL/6 mice [1]
  insulin tolerance: exceed that of animals in the HFD only cohort
C57BL/6 mice [2]; end of the study (day 84), p<0.05, FIG. 1B
  body weight relative to the high-fat diet control group: statistically significant reduction
C57BL/6 mice [2]; [4]
  serum LDL levels (non-fasted): significantly improved
  serum total cholesterol levels (non-fasted): significantly improved
C57BL/6 mice [2]; [5]
  body weights compared with the LFD cohort: indistinguishable from those in the LFD cohort
  metabolic markers (e.g., glucose tolerance, insulin tolerance, cholesterol levels): improve metabolic markers
C57BL/6 mice [2]; mice fed high-fat diet + test article, FIGS. 1C, 1D
  appetite (food consumption): without significant appetite suppression
C57BL/6 mice [2]; mice fed high-fat diet, over the study
  weight loss: induce weight loss; also recorded: underwent weight loss
C57BL/6 mice [3]
  glucose tolerance: exceed that of animals in the HFD only cohort
